The list shows a part of the results. These are further read-outs of the screen, such as a control signal, another cell line or another target. No call is given for them. Compounds called inactive in the main read-out are mostly missing here. Potencies come from curve fits of mixed quality, noted in brackets.
Experiment: qHTS Assay to Find Inhibitors of Chronic Active B-Cell Receptor Signaling
Conditions: ABC-DLBCL IkBa-CBG/CBR reporter, luminescence ratio (green luciferase fused to IkBa over red control in TMD8 lymphoma cells), 4 h
Method in brief: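 TMD8 ABC-DLBCL cells carrying doxycycline-inducible green luciferase fused to IkappaBalpha plus unfused red luciferase were exposed to compounds (up to 46 uM) for 4 hrs at 37C. Activity came from the overlap-corrected green/red luminescence ratio.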

[1] = measured here: CBR red luminescence, cell number
[2] = measured here: IkBa-CBG green luminescence

SMILES: Cc1ccc(NC(=O)c2cccc(S(=O)(=O)N3CCCC3)c2)nc1
- AC50 [1]: 23.1 µM [falling, single point]

SMILES: O=C(NCc1nnc(SCC(=O)N2CCN(c3ccccc3)CC2)o1)c1c(F)cccc1F
- AC50 [1]: 20 µM [falling, single point]

SMILES: O=C(c1ccc(N2CCCC2)c([N+](=O)[O-])c1)N1CCc2ccccc2C1
- AC50 [1]: 6.51 µM [rising, partial curve, poor fit]

SMILES: O=C(O)c1cccc(Cn2c(Cl)c(/C=N/Nc3ccccc3)sc2=O)c1
- AC50 [1]: 11.2 µM [falling, partial curve, poor fit]

SMILES: O=C(/C=C/c1cccs1)c1ccc(NC(=O)c2ccccc2F)cc1
- AC50 [2]: 18.4 µM [falling, partial curve, poor fit]

SMILES: Cc1nn(-c2ccccc2)c(Cl)c1/C=C1\SC(=S)NC1=O
- AC50 [1]: 16.4 µM [falling, partial curve]

SMILES: Cc1ccc(S(=O)(=O)n2nc(OC(=O)C(C)(C)C)cc2N)cc1
- AC50 [1]: 15.8 µM [rising, single point]
- AC50 [2]: 20 µM [falling, single point]

SMILES: Cc1c(C(=S)Nc2ccccc2)cnn1-c1ccccc1
- AC50 [1]: 0.562 µM [rising, full curve, poor fit]

SMILES: O=C(O)CCCCCNc1nc(-c2ccccc2)nc2ccccc12
- AC50 [1]: 22.4 µM [falling, single point]

SMILES: CCOc1ccccc1Nc1nc2ccccc2[nH]1
- AC50 [1]: 8.2 µM [falling, partial curve, poor fit]

SMILES: O=C(Nc1ccc2nc3n(c(=O)c2c1)CCCC3)c1cccc([N+](=O)[O-])c1
- AC50 [1]: 0.58 µM [rising, partial curve, poor fit]

SMILES: O=C(NNC(=O)c1ccc([N+](=O)[O-])o1)c1ccccc1
- AC50 [1]: 8.91 µM [falling, partial curve, poor fit]

SMILES: CS(=O)(=O)N1CCN(c2nc3ccccc3s2)CC1
- AC50 [1]: 1.26 µM [rising, full curve, poor fit]

SMILES: CC(=O)Nc1ccc2nc(NC(=O)c3ccco3)sc2c1
- AC50 [1]: 10 µM [falling, partial curve]

SMILES: CCC(=O)NC(c1ccccc1OC)c1ccc2cccnc2c1O (centres undefined)
- AC50 [1]: 5.8 µM [falling, partial curve, poor fit]

SMILES: Oc1cccc2ccc(N3CCOCC3)nc12
- AC50 [1]: 2.82 µM [rising, partial curve, poor fit]

SMILES: Cc1ccnc(NC(=O)CNC(=O)c2ccc(Br)o2)c1
- AC50 [1]: 23.1 µM [falling, partial curve]

SMILES: O=C(CSc1nc2c(sc3ccccc32)c(=O)n1-c1ccccc1)NCc1ccco1
- AC50 [1]: 29.1 µM [falling, single point]

SMILES: C/C(CCc1ccc2c(c1)OCO2)=N\N=C(/N)SC1CC(=O)N(c2ccc(Cl)cc2)C1=O (centres undefined)
- AC50 [1]: 3.16 µM [falling, full curve, poor fit]

SMILES: COC(=O)c1ccsc1NC(=O)CSc1nnnn1-c1ccccc1SC
- AC50 [1]: 0.058 µM [falling, full curve, poor fit]

SMILES: CCOc1ccc(-c2noc(CCCC(=O)NC3CCCC3)n2)cc1OC
- AC50 [1]: 14.1 µM [falling, partial curve, poor fit]

SMILES: Cc1cc(N2CCCCC2)n2ncc(-c3ccccc3)c2n1
- AC50 [1]: 1.26 µM [rising, full curve, poor fit]

SMILES: Cc1cc(C)c(C)c(S(=O)(=O)NNC(=O)c2cccc(S(=O)(=O)N3CCOCC3)c2)c1C
- AC50 [1]: 3.26 µM [rising, single point]

SMILES: Cc1nc2ccc(NC(=O)c3ccc([N+](=O)[O-])cc3)cc2s1
- AC50 [1]: 2.91 µM [rising, partial curve]

SMILES: Cc1cc(C(=O)COC(=O)c2cccn2C)c(C)n1Cc1ccco1
- AC50 [1]: 14.1 µM [falling, single point]

SMILES: CCOC(=O)N/N=C\C=C\c1ccc2c(c1)OCO2
- AC50 [1]: 23.1 µM [falling, single point]

SMILES: N#Cc1ccccc1NCc1ccccc1
- AC50 [1]: 12.6 µM [rising, single point]

SMILES: COc1ccc2c(c1)OC[C@H]1[C@H]2N2C(=O)CN(Cc3ccc(Cl)cc3)C(=O)[C@@]2(C)[C@H]1c1ccccc1
- AC50 [1]: 29.1 µM [falling, partial curve, poor fit]

SMILES: O=C(Nc1ccccc1OC(F)F)c1cc2c(s1)CCC2
- AC50 [1]: 6.51 µM [rising, partial curve]

SMILES: CCOC(=O)c1cc2c(=O)c3ccccc3oc2nc1C
- AC50 [1]: 35.5 µM [rising, single point]

SMILES: CCN(CC)c1ccc2c(Cl)c(Br)c(=O)oc2c1
- AC50 [1]: 35.5 µM [falling, single point]
- AC50 [2]: 22.4 µM [rising, partial curve, poor fit]

SMILES: Cc1sc(NC(=O)C2=COCCO2)c(C#N)c1C
- AC50 [1]: 8.2 µM [rising, partial curve, poor fit]

SMILES: COC(=O)c1ccc(Cn2cc(Cl)cn2)cc1
- AC50 [1]: 10 µM [rising, partial curve]

SMILES: c1ccc(OCc2nc3ccccc3[nH]2)cc1
- AC50 [1]: 16.4 µM [falling, single point]

SMILES: Cc1c(C(=O)N(Cc2ccccc2)C(C)C)oc2ccc(S(=O)(=O)N3CCOCC3)cc12
- AC50 [1]: 35.5 µM [falling, single point]

SMILES: COc1ccc(NC(=O)c2ccccc2NC(=O)c2ccco2)cc1
- AC50 [1]: 11.2 µM [falling, partial curve, poor fit]

SMILES: CC1=C(C#N)C(=O)N(C2CCS(=O)(=O)C2)C(=O)/C1=C\c1ccc(C)o1 (centres undefined)
- AC50 [1]: 1 µM [rising, full curve, poor fit]

SMILES: Nc1cccc2c1C(=O)N(CCOc1ccc(F)cc1)C2=O
- AC50 [1]: 0.794 µM [rising, full curve]

SMILES: Cc1ccc(-c2nn(-c3ccccc3)cc2C(N)=O)o1
- AC50 [1]: 7.94 µM [falling, partial curve]

SMILES: Cc1ccc(OCC(=O)NCCS(=O)(=O)N2CCN(c3ccccc3)CC2)cc1
- AC50 [1]: 0.146 µM [rising, full curve, poor fit]

SMILES: O=C(O)c1cccc(Nc2ncnc3sccc23)c1
- AC50 [1]: 5.62 µM [falling, partial curve]

SMILES: O=C(NC1CCCC1)c1cc2cc(Br)ccc2o1
- AC50 [1]: 10 µM [falling, partial curve]

SMILES: CCC(CO)[n+]1c(C)cc(/C=C2\Sc3ccccc3N2Cc2ccccc2)cc1C (centres undefined)
- AC50 [1]: 11.6 µM [falling, partial curve, poor fit]

SMILES: CN(c1ccccc1)S(=O)(=O)c1ccc(NC(=S)NC(=O)c2ccccc2)cc1
- AC50 [1]: 7.31 µM [falling, partial curve]

SMILES: CCc1nc(SCC(=O)NCCc2ccccc2)n[nH]1
- AC50 [1]: 32.6 µM [rising, single point]

SMILES: COC(=O)CSc1nc(N)c(C#N)c(CC(C)C)c1C#N
- AC50 [1]: 8.2 µM [falling, partial curve]

SMILES: O=C(Nc1cccc(C(=O)O)c1)Nc1ccccc1Cl
- AC50 [1]: 11.2 µM [falling, partial curve]

SMILES: O=S(=O)(/N=C(/Nc1ccc(Cl)c(S(=O)(=O)Nc2ccccc2Cl)c1)c1ccc(F)cc1)c1ccccc1
- AC50 [1]: 35.5 µM [falling, single point]

SMILES: O=C(Nc1nccs1)c1ccc2ccccc2c1
- AC50 [1]: 11.2 µM [falling, partial curve]

SMILES: CCCN(CCC)CC(=O)N1CC(=O)Nc2ccccc21
- AC50 [1]: 0.447 µM [rising, full curve, poor fit]

SMILES: O=C(Nc1ccccc1)c1ccccc1OCC(O)CN1C(=O)c2ccccc2S1(=O)=O (centres undefined)
- AC50 [1]: 3.55 µM [rising, single point]

SMILES: COc1ccc(NC(=O)c2ccc(S(=O)(=O)N3CCCCCC3)cc2)c(OC)c1
- AC50 [1]: 0.794 µM [rising, partial curve]

SMILES: CN1CCc2c(c3ccccc3n2C)C1
- AC50 [1]: 28.2 µM [falling, single point]

SMILES: COc1ccccc1-c1nnc(Nc2nc3c(OC)cccc3s2)o1
- AC50 [1]: 1.64 µM [falling, full curve]
- AC50 [2]: 2.59 µM [falling, full curve]

SMILES: Cc1ccc(SCC(=O)N2CCC(C(N)=O)CC2)cc1
- AC50 [1]: 7.94 µM [rising, partial curve]

SMILES: O=C(NCc1cccs1)Nc1ccc2c(c1)OCO2
- AC50 [1]: 9.2 µM [falling, partial curve]

SMILES: CCOC(=O)C1=C(C)NC(=O)NC1C (centres undefined)
- AC50 [1]: 29.1 µM [rising, single point]

SMILES: Cc1ccc(CCNC(=O)C2=CCN(S(=O)(=O)c3ccccc3)CC2)cc1
- AC50 [1]: 2.82 µM [falling, partial curve, poor fit]

SMILES: CCn1c(-c2ccccc2Cl)nn(CC(=O)Nc2cc(Cl)ccc2Cl)c1=S
- AC50 [1]: 20 µM [falling, partial curve]

SMILES: Cc1ccc(N2CC(C(=O)Nc3ccc4c(c3)OCO4)CC2=O)cc1 (centres undefined)
- AC50 [1]: 32.6 µM [rising, single point]

SMILES: CCCc1ccc(Oc2cc(Cl)nc(N)n2)cc1
- AC50 [1]: 2.31 µM [rising, full curve]

SMILES: O=[N+]([O-])c1ccc(CSc2nc3ccccc3o2)cc1
- AC50 [1]: 3.55 µM [rising, full curve]

SMILES: Cc1ccc(OCc2nc3ccccc3[nH]2)cc1
- AC50 [1]: 10.3 µM [falling, partial curve]

SMILES: O=C(Nn1cnnc1)c1cccc(S(=O)(=O)N2CCOCC2)c1
- AC50 [1]: 7.08 µM [falling, partial curve]

SMILES: Cc1ccccc1-c1nnn(CC(=O)NC(=O)NC2CCCC2)n1
- AC50 [1]: 20.6 µM [falling, partial curve, poor fit]

SMILES: O=C(NC(=S)NNC(=O)c1ccco1)c1ccc(F)cc1
- AC50 [1]: 10 µM [falling, single point]
